This passage reports survivor count and T/C results from PubChem BioAssay AID224 (DTP/NCI, 2004).

The list shows only some results of the screen, not a fair sample: it gathers tests that were run many times, whatever their T/C, doses with no T/C, and many T/C values between a quarter and a half above the control. Further doses and runs are listed elsewhere. T/C is the treated group as % of the vehicle group. Some entries give survivors of the animals treated and no T/C: the source holds a T/C of zero for them, seemingly a mark for toxic or unscored doses. Some survivor counts are full or nearly so, which does not show that the dose was tolerated: survival well below the control is almost never listed, so the zero probably covers shortened survival too. Survivors were counted at the toxicity check, usually on the fifth day, unless a day is given; later deaths do not show. Schedules are NCI's codes, read here as Q, the interval in days (D) or hours (H), X, the number of doses. Some schedules carry Z or #; the key to these is not given. Some doses were run more than once; the values are given in rising order. Where survival is the endpoint, the PubChem record calls one and a half times the control and up active, and a quarter to a half above the control has no call in these data; cut-offs in other NCI protocols can differ. Some T/C values are followed by the survivors on the day toxicity was checked, most often the fifth; where none is given, no animal had died by that day.

The experiment concerns P335 leukemia ip, BDF1 mice, survival T/C %. The experiment in a line: NCI In Vivo Anticancer Drug Screen. Data for tumor model P335 Leukemia (intraperitoneal) in B6D2F1 (BDF1) mice. The following applies: T/C endpoint: mean survival time, schedule: Q01DX Z (ip), higher T/C = longer survival. As to the method:
The antitumor activity of compounds was measured in mice bearing transplantable tumors. Survival or tumor size were measured and the results are expressed as the measurement made in the treated group (T) divided by the measurement made in the vehicle treated control group (C). The tumor model used in this assay is P335 Leukemia (intraperitoneal) in B6D2F1 (BDF1) mice

The mark [1] stands for this setting: dose: 250.0 mg/kg/injection, vehicle: carboxymethylcellulose (CMC).
[2] abbreviates: dose: 12.5 mg/kg/injection, vehicle: saline.
[3] abbreviates: dose: 100.0 mg/kg/injection, vehicle: saline.
The mark [4] stands for this setting: dose: 62.5 mg/kg/injection, vehicle: carboxymethylcellulose (CMC).
The mark [5] stands for this setting: dose: 500.0 mg/kg/injection, vehicle: carboxymethylcellulose (CMC).

For `C[C@]12CC[C@H](OC3OC(CO)C(O)C(O)C3O)C[C@H]1CC[C@@H]1[C@@H]2CC[C@]2(C)[C@@H](C3=CCOC3=O)CC[C@]12O` (stereo not given in full), the survivor count (dose: 0.03 mg/kg/injection, vehicle: saline) is reported as 6 of 6; the survivor count (dose: 0.06 mg/kg/injection, vehicle: saline) is recorded as 6 of 6; the survivor count (dose: 0.12 mg/kg/injection, vehicle: saline) is 5 of 6 and 6 of 6; the survivor count (dose: 0.25 mg/kg/injection, vehicle: saline) is 2 of 6 and 5 of 6; the survivor count (dose: 0.5 mg/kg/injection, vehicle: saline) is given as 6 of 6; the survivor count (dose: 1.0 mg/kg/injection, vehicle: saline) is reported as 6 of 6. The survivor count was 6 of 6 (dose: 10.0 micrograms/kg/injection, vehicle: saline); 6 of 6 (dose: 20.0 micrograms/kg/injection, vehicle: saline); 6 of 6 (dose: 40.0 micrograms/kg/injection, vehicle: saline); 6 of 6 (dose: 80.0 micrograms/kg/injection, vehicle: saline).

As to `CN(C)c1nc(N(C)C)nc(N(C)C)n1`, the T/C under setting [1] was 127 % of control. For the setting “dose: 2000.0 mg/kg/injection, vehicle: carboxymethylcellulose (CMC)”, the survivor count is recorded as 3 of 6.

Turning to `CC[C@]1(O)C[C@H]2CN(CCc3c([nH]c4ccccc34)[C@@](C(=O)OC)(c3cc4c(cc3OC)N(C=O)[C@H]3[C@@](O)(C(=O)OC)[C@H](OC(C)=O)[C@]5(CC)C=CCN6CC[C@]43[C@@H]65)C2)C1`, the survivor count is 2 of 6 (dose: 0.5 mg/kg/injection, vehicle: water); 1 of 6 and 5 of 6 (dose: 1.0 mg/kg/injection, vehicle: water).

Consider `C[C@H]1C(=O)O[C@@H]2CCN3CC=C(COC(=O)[C@](C)(O)[C@@]1(C)O)[C@H]23`, for which the survivor count reads like this: (dose: 30.0 mg/kg/injection, vehicle: carboxymethylcellulose (CMC)) 5 of 6; (dose: 60.0 mg/kg/injection, vehicle: carboxymethylcellulose (CMC)) 6 of 6; (dose: 120.0 mg/kg/injection, vehicle: carboxymethylcellulose (CMC)) 6 of 6.

In the case of `O=P1(N(CCCl)CCCl)NCCCO1` (stereo not given), the T/C was 118, 125, 127, 138 % of control under setting [2]; 161, 245, 301, 307 % of control (dose: 25.0 mg/kg/injection, vehicle: saline); 152, 171, 253, 305 % of control (dose: 50.0 mg/kg/injection, vehicle: saline); 129 % of control under setting [3]. Besides, under “dose: 200.0 mg/kg/injection, vehicle: saline”, the survivor count was 1 of 6.

For the compound `CN(Cc1cnc2nc(N)nc(N)c2n1)c1ccc(C(=O)N[C@@H](CCC(=O)O)C(=O)O)cc1`, the T/C (dose: 0.31 mg/kg/injection, vehicle: other) was 125 % of control; the T/C (dose: 0.62 mg/kg/injection, vehicle: other) is given as 138, 140, 149, 161, 214 % of control; the T/C (dose: 1.25 mg/kg/injection, vehicle: other) is recorded as 142, 152, 162, 171, 205 % of control; the T/C (dose: 1.5 mg/kg/injection, vehicle: other) was 131 % of control [5 of 6 alive]; the T/C (dose: 2.5 mg/kg/injection, vehicle: other) is 120 [5 of 6 alive], 140, 159, 163, 168 % of control; the T/C (dose: 5.0 mg/kg/injection, vehicle: other) was 91, 117, 118 [5 of 6 alive], 119 % of control.

`C[N+](C)(C)c1ncnc2nc[nH]c12`: the survivor count by setting is: (dose: 25.0 mg/kg/injection, vehicle: carboxymethylcellulose (CMC)) 6 of 6; (dose: 50.0 mg/kg/injection, vehicle: carboxymethylcellulose (CMC)) 6 of 6; (dose: 200.0 mg/kg/injection, vehicle: carboxymethylcellulose (CMC)) 6 of 6.

For `N=[N+]=CC(=O)OCC(N)C(=O)O` (stereo not given), the T/C by setting is: (dose: 1.56 mg/kg/injection, vehicle: saline) 134 % of control; (dose: 3.12 mg/kg/injection, vehicle: saline) 131 % of control; (dose: 6.25 mg/kg/injection, vehicle: saline) 134 % of control; (dose: 9.37 mg/kg/injection, vehicle: saline) 130 % of control; under setting [2], 145 % of control. Further, the survivor count under setting [3] was 0 of 6.

On to `CCOC(=O)NP(=O)(N1CC1(C)C)N1CC1(C)C` (stereo not given), for which the survivor count runs as follows: under setting [4], 6 of 6; under setting [5], 5 of 6.

Take `C1CN1c1nc(N2CC2)nc(N2CC2)n1`: the survivor count was 6 of 6 (dose: 3.9 micrograms/kg/injection, vehicle: saline); 6 of 6 (dose: 15.7 micrograms/kg/injection, vehicle: saline); 1 of 6 (dose: 62.5 micrograms/kg/injection, vehicle: saline); 0 of 6 (dose: 500.0 micrograms/kg/injection, vehicle: saline).

As to `CC(=O)OCC1OC(n2ncc(=O)[nH]c2=O)C(OC(C)=O)C1OC(C)=O` (stereo not given), the T/C (dose: 375.0 mg/kg/injection, vehicle: other) was 129 % of control. Also, the survivor count by setting is: (dose: 750.0 mg/kg/injection, vehicle: other) 6 of 6; (dose: 1500.0 mg/kg/injection, vehicle: other) 6 of 6.

For the compound `C[C@@H]1C[C@@H]([C@H](O)CC2CC(=O)NC(=O)C2)C(=O)[C@@H](C)C1`, the survivor count was 1 of 6 (dose: 100.0 mg/kg/injection, vehicle: water) and 0 of 6 (dose: 200.0 mg/kg/injection, vehicle: water).

As for `COC12C(COC(N)=O)C3=C(C(=O)C(C)=C(N)C3=O)N1CC1C2N1C` (stereo not given), the T/C was 137 % of control (dose: 1.25 mg/kg/injection, vehicle: carboxymethylcellulose (CMC)); 139 and 147 % of control (dose: 2.5 mg/kg/injection, vehicle: carboxymethylcellulose (CMC)); 127 % of control (dose: 10.0 mg/kg/injection, vehicle: carboxymethylcellulose (CMC)). The survivor count (dose: 20.0 mg/kg/injection, vehicle: carboxymethylcellulose (CMC)) is 6 of 6.

Take `O=CCC(O)C(O)C(O)CO` (stereo not given): the survivor count is reported as 4 of 6 under setting [4]; 4 of 6 (dose: 125.0 mg/kg/injection, vehicle: carboxymethylcellulose (CMC)); 6 of 6 under setting [1]; 6 of 6 under setting [5].

Regarding `Nc1nc(SCc2ccccc2)c2[nH]cnc2n1`, the survivor count is reported as 3 of 6 (dose: 1.2 mg/kg/injection, vehicle: carboxymethylcellulose (CMC)); 3 of 6 (dose: 4.7 mg/kg/injection, vehicle: carboxymethylcellulose (CMC)); 6 of 6 (dose: 37.5 mg/kg/injection, vehicle: carboxymethylcellulose (CMC)); 0 of 6 (dose: 75.0 mg/kg/injection, vehicle: carboxymethylcellulose (CMC)).
